The list shows a part of the results. These are further read-outs of the screen, such as a control signal, another cell line or another target. No call is given for them. The list favours compounds with an active or inconclusive main result. Potencies come from curve fits of mixed quality, noted in brackets.

The nature of the test: qHTS Assay for Lipid Storage Modulators in Drosophila S3 Cells.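 On cell number change: cells counted by Cell Tracker Red CMTPX staining in the red channel.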 Conditions: BODIPY lipid droplet fluorescence, 18-24 h; for cell number change: measured here: cell count max response, cells fed with added oleic acid. An outline of the steps: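 Drosophila S3 cells got compounds at several concentrations plus oleic acid (400 uM solution). Laser-scanning cytometry with 488 nm excitation read lipid droplets at 500-530 nm and cells at 575-640 nm. Percent activity was relative to 20 uM Triacsin C.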

Setting [1] is: measured here: cell number channel AC50, cells fed with added oleic acid.
The mark [2] stands for this setting: measured here: lipid fluorescence (Fed channel) AC50, cells fed with added oleic acid.

Take `Cn1nc(C(=O)NCCc2ccc3c(c2)OCCO3)c2ccccc2c1=O`: the cell number change is 39.4%. Under setting [1], the AC50 (usually the concentration giving half of the maximal activity seen) is 11.6 µM [rising, single point].

Regarding `Cc1nn(Cc2ccc(F)cc2)c(Cl)c1/C=N/NC(=O)c1cccnc1`, the AC50 under setting [1] is 0.651 µM [falling, partial curve, poor fit].

As for `O=S(=O)(NCc1cccs1)c1ccccc1Cl`, the cell number change turned out to be 37.7%. Moreover, under setting [1], the AC50 was 5.17 µM [falling, single point]. Besides, under setting [2], the AC50 was 32.6 µM [rising, single point].

Turning to `Fc1ccc(C[n+]2csc3ccccc32)cc1`, the cell number change is -14.3%.

For `CCN1CCN(C(=O)CN(c2ccc(C)cc2)S(C)(=O)=O)CC1`, the cell number change worked out at 1.26%.

As for `CN(Cc1cccs1)C(=O)CCNS(=O)(=O)c1ccc(Br)cc1`, the cell number change is -40.2%. Moreover, under setting [1], the AC50 was 14.6 µM [falling, partial curve].

With `O=C(c1cnn2c(C(F)(F)F)cc(-c3ccccc3)nc12)N1CCCCC1c1cccnc1` (configuration not stated), the AC50 under setting [1] is 0.146 µM [falling, full curve, poor fit].

For the compound `COc1ccc(-c2nc(-c3ccc(NC(=O)c4ccncc4)cc3)no2)cc1OC`, the cell number change is -14.8%. Further, under setting [2], the AC50 was 18.4 µM [falling, single point].

As to `CCN1C(=S)N[C@@H](CCc2ccccc2)[C@H](C(=O)OC)[C@H]1C`, the cell number change was -9.9%.

As to `CC(C)CC(=O)NC(=S)Nc1cccc(NC(=O)c2ccccc2)c1`, under setting [2], the AC50 is 2.06 µM [rising, partial curve, poor fit].

As to `CCCCC(=O)NCCNc1nc2c(c(=O)n(C)c(=O)n2C)n1Cc1ccc(F)cc1`, the cell number change was -26%.

`CSc1nc2ccsc2c(=O)n1-c1ccccc1`: the cell number change came to 6.41%.

Take `CSCCC(N=C1NS(=O)(=O)c2ccccc21)C(=O)NCCc1ccccc1` (configuration not stated): the cell number change was -15.9%. The AC50 under setting [2] was 16.4 µM [falling, partial curve].

`N#Cc1cc2c(=O)n3ccccc3nc2n(CCN2CCOCC2)c1=O`: the cell number change was -0.542%.

In the case of `CCOC(=O)Cc1nnc(NC(=O)COc2ccc(OC)cc2)s1`, the cell number change was determined as 5.06%. Besides, the AC50 under setting [2] is 0.103 µM [falling, full curve, poor fit].

For the compound `O=C(NCc1cccnc1)c1cc(-c2ccccc2)on1`, the cell number change was -3.99%. For the same compound, the concentration at half-maximal activity (AC50) under setting [2] is 0.00461 µM [falling, full curve, poor fit].

As for `Cc1ccc(Cl)cc1NC(=O)CON=C(N)c1ccccc1`, under setting [2], the AC50 was 32.6 µM [rising, single point].

Consider `COc1ccc(C(=O)OC(C)C(=O)NC(C)CCc2ccccc2)c(OC)c1` (configuration not stated), for which the cell number change was -12.4%. Besides, under setting [2], the AC50 was 29.1 µM [falling, single point].

Turning to `Cc1ccc(OCCN2CCN(CC(O)Cn3c4ccccc4c4ccccc43)CC2)cc1` (configuration not stated), the cell number change was -75.6%. Moreover, under setting [1], the concentration at half-maximal activity (AC50) is 16.4 µM [falling, partial curve]. The half-maximal activity concentration (AC50) under setting [2] was 18.4 µM [falling, partial curve].

For the compound `COc1ccc(NC(=O)CN2C(=O)CSC(C)C2=O)cc1` (configuration not stated), the cell number change was -19.6%.

Regarding `Cc1cc(C)cc(NC(=O)COC(=O)CN=C2NS(=O)(=O)c3ccccc32)c1`, the cell number change is -5.2%. The concentration at half-maximal activity (AC50) under setting [2] is 0.058 µM [rising, full curve, poor fit].

With `CC(C)C(=O)Nc1cccc(NC(=S)NC(=O)c2ccc(Cl)cc2)c1`, the cell number change was -39.9%. The AC50 under setting [1] was 29.1 µM [falling, single point]. In addition, the half-maximal activity concentration (AC50) under setting [2] is 11.6 µM [falling, partial curve, poor fit].

In the case of `Cc1cccc(C(=O)NCC(=O)OCC(=O)N2CCc3ccccc32)c1`, the cell number change came to 16.3%. In addition, the concentration at half-maximal activity (AC50) under setting [1] was 0.00517 µM [falling, full curve, poor fit].

Turning to `O=C(COC(=O)COc1ccc(Cl)cc1Br)NC1CCCCCC1`, the cell number change worked out at 13.7%. Further, under setting [2], the concentration at half-maximal activity (AC50) is 1.84 µM [falling, full curve, poor fit].

For the compound `COC(=O)CCCC(=O)N1CCC(CCC(=O)NC2CC2)CC1`, the cell number change was found to be 10.1%.

As to `O=C(NCc1ccccc1C(F)(F)F)C1CCC(=O)N(CCCc2ccccc2)C1` (configuration not stated), the cell number change came out at 3.2%.

Take `CN(CC(=O)Nc1ccc(Cl)cc1)C(=O)C1=COCCO1`: the cell number change amounted to 20%. The AC50 under setting [2] was 5.17 µM [falling, partial curve].

With `CN1CCOCCOCCN(C)C(=O)N2CCOCCOCCN(CCOCC2)C1=O`, the cell number change is 16.1%. For the same compound, the concentration at half-maximal activity (AC50) under setting [2] is 0.00517 µM [falling, full curve, poor fit].

On to `CCc1nnc(NC(=O)CCC(=O)NCCc2ccc(OC)c(OC)c2)s1`, for which the cell number change stood at 33.3%. The AC50 under setting [1] is 16.4 µM [rising, single point].

On to `O=C(Nc1cc(S(=O)(=O)N2CCOCC2)ccc1Cl)C(=O)c1c(-c2ccccc2)cc2ccccn12`, for which the cell number change came out at 21.9%. In addition, the concentration at half-maximal activity (AC50) under setting [2] is 6.51 µM [rising, single point].

As to `Clc1ccc2c(NCc3cccs3)ncnc2c1`, the cell number change was -11.7%. For the same compound, the AC50 under setting [2] is 20.6 µM [falling, single point].

As to `O=c1cc(N2CCCCC2)c(-c2ccccc2)nn1Cc1ccccc1Cl`, the cell number change is -8.91%.

For `Cc1ccc(-c2c3c(nc4sc(C(N)=O)c(N)c24)CCCC3)o1`, the cell number change came to 36%. In addition, the concentration at half-maximal activity (AC50) under setting [1] is 5.17 µM [rising, partial curve]. For the same compound, the half-maximal activity concentration (AC50) under setting [2] was 5.17 µM [rising, partial curve].

Turning to `Clc1ccc(-n2ncc3c(NCC4CCCO4)ncnc32)cc1` (configuration not stated), the cell number change was -14.7%. For the same compound, the AC50 under setting [2] was 20.6 µM [falling, partial curve].

In the case of `CC1=C(C(=O)OC2CCCCC2)C(c2ccc(C)o2)C2=C(CCCC2=O)N1` (configuration not stated), the cell number change came out at 1.45%. Moreover, the AC50 under setting [2] is 0.00411 µM [rising, full curve, poor fit].

As to `Cc1cccc(N2CCN(C(=O)CN3C(=O)C4CC=CCC4C3=O)CC2)c1C` (configuration not stated), the cell number change amounted to 23.1%.

`Cc1cc(C)nc(N/N=C2/CCSc3ccc(F)cc32)n1`: the cell number change is -13.2%. The concentration at half-maximal activity (AC50) under setting [2] is 5.62 µM [rising, single point].

`Cc1ccsc1C(=O)Nc1cc(C(C)(C)C)nn1-c1ccccc1`: the cell number change stood at 33.2%. Under setting [1], the half-maximal activity concentration (AC50) was 2.91 µM [rising, partial curve, poor fit]. Under setting [2], the concentration at half-maximal activity (AC50) was 6.51 µM [rising, single point].

As to `COc1cc2nc(=S)n3[nH]c(CCn4nc(C)cc4C)nc3c2cc1OC`, the cell number change came out at 6.76%.

On to `CC(=O)Oc1cccc(C(=O)Nc2c[nH]c(=O)[nH]c2=O)c1`, for which the half-maximal activity concentration (AC50) under setting [2] is 0.13 µM [falling, full curve, poor fit].

Consider `CCOC(=O)N1CCN(CC(O)COc2c(C)cccc2C)CC1` (configuration not stated), for which the cell number change was -1.02%. For the same compound, under setting [2], the AC50 is 29.1 µM [rising, single point].

Regarding `CCN1CCN(c2ccc(NC(=O)c3cccc(F)c3)cc2Cl)CC1`, under setting [1], the concentration at half-maximal activity (AC50) was 0.103 µM [falling, full curve, poor fit].

For the compound `CC1CCN(C(=O)CSc2nnc3c(n2)[nH]c2ccc(F)cc23)CC1`, the AC50 under setting [2] is 1.16 µM [rising, full curve].

Consider `Cc1cc(C)n(-c2nc3c(c(=O)[nH]c(=O)n3C)n2Cc2ccc(F)cc2)n1`, for which the cell number change is 57.7%. Under setting [1], the concentration at half-maximal activity (AC50) is 3.66 µM [rising, partial curve, poor fit]. For the same compound, under setting [2], the concentration at half-maximal activity (AC50) is 1.64 µM [rising, partial curve].

As for `CCn1c2ccccc2c2nnc(NN)nc21`, the cell number change came out at 50%. For the same compound, under setting [1], the AC50 was 5.8 µM [rising, full curve]. Under setting [2], the concentration at half-maximal activity (AC50) was 3.26 µM [rising, partial curve, poor fit].

In the case of `CC(=O)Nc1ccc(C(=O)NC2CCCC2)cc1`, the cell number change is 6.12%.

As for `O=C(N1CCOCC1)N1CCN(S(=O)(=O)c2ccc(Cl)cc2)CC1`, the cell number change is -14.7%. Besides, the concentration at half-maximal activity (AC50) under setting [2] is 2.31 µM [rising, partial curve].

Take `CN(C)C(=O)CCCc1nc(-c2ccc(Cl)cc2)no1`: the cell number change is -16.2%. For the same compound, the concentration at half-maximal activity (AC50) under setting [2] is 4.61 µM [rising, single point].

For `NC(=O)c1cc(S(=O)(=O)NCc2ccc(Br)cc2)cs1`, the cell number change worked out at 3.44%. Also, the concentration at half-maximal activity (AC50) under setting [2] is 29.1 µM [rising, single point].

Consider `Cc1cc(N)ccc1NC(=O)CN1CCCC1`, for which the cell number change amounted to 24.3%.

As for `CCOC(=O)N1CCC(NC(=O)c2cc3ccccn3n2)CC1`, the half-maximal activity concentration (AC50) under setting [1] was 0.291 µM [rising, full curve, poor fit].

`O=C(Cc1ccccc1)NN1C(=O)C2C(C1=O)C1C=CC2C12CC2` (configuration not stated): the cell number change is 4.76%. In addition, the AC50 under setting [2] is 5.8 µM [rising, single point].

`COc1ccc2[nH]c3c(c2c1)CCN1C(=O)N([C@@H](C)C(=O)NCCc2ccc(OC)c(OC)c2)C(=O)[C@]31C`: the cell number change was -35.3%. Moreover, under setting [1], the concentration at half-maximal activity (AC50) is 0.461 µM [falling, full curve]. Besides, the half-maximal activity concentration (AC50) under setting [2] is 1.64 µM [falling, partial curve].

As for `CCCc1cc(-c2nc(-c3ccc(C)cc3)cs2)ccn1`, the cell number change was -38.9%. Besides, the concentration at half-maximal activity (AC50) under setting [1] was 29.1 µM [falling, single point].

On to `c1cncc(-c2cn(C[C@H]3CC[C@@H]([C@@H]4CC[C@H](Cn5cc(-c6cccnc6)nn5)O4)O3)nn2)c1`, for which, under setting [2], the concentration at half-maximal activity (AC50) was 16.4 µM [falling, partial curve].

Turning to `CCOc1ccc(C(=O)NCc2cccs2)cc1`, the cell number change is -3.78%.

On to `Cc1ccc(-c2cc(C(=O)NCCCn3ccnc3)no2)cc1`, for which the cell number change is 27.1%. Further, the AC50 under setting [2] was 20.6 µM [rising, partial curve, poor fit].

Take `Cc1nn(-c2ccccc2)c(C)c1C(=O)OCC(=O)Nc1ccccc1C(F)(F)F`: the cell number change was -0.125%. The AC50 under setting [2] was 3.66 µM [falling, single point].

Consider `Nc1nc(-c2ccc(Cl)cc2)c(N=Nc2ccc(S(=O)(=O)N3CCOCC3)cc2)s1`, for which the cell number change is -18.7%. Moreover, the concentration at half-maximal activity (AC50) under setting [1] was 3.26 µM [falling, single point]. In addition, the AC50 under setting [2] was 6.51 µM [rising, partial curve, poor fit].

Turning to `Cn1c(SCC(=O)N2CCOCC2)nnc1-c1ccccc1`, the cell number change was -44.8%. Moreover, the AC50 under setting [1] was 16.4 µM [falling, single point]. Moreover, the AC50 under setting [2] was 16.4 µM [falling, single point].

`COc1ccc(NC(=O)/C=C/c2ccc(S(=O)(=O)N3CCOCC3)cc2)cc1`: the cell number change is -5.92%. In addition, the AC50 under setting [2] is 20.6 µM [rising, single point].

Consider `Cc1oc(=O)c(NC(=O)c2ccccc2)cc1C(=O)c1ccccc1`, for which the cell number change was -51.7%. Moreover, under setting [1], the half-maximal activity concentration (AC50) was 16.4 µM [falling, partial curve]. In addition, under setting [2], the AC50 was 18.4 µM [falling, partial curve].

Take `COc1ccc(C(=O)NC2CCc3ccccc32)cc1OC1CCN(C(C)=O)CC1` (configuration not stated): the cell number change was determined as 1.62%.

Source of the values: PubChem BioAssay AID2685 (National Center for Advancing Translational Sciences (NCATS), 2010).
